Results are given in words; binding and its absence hold for the method and conditions named. Some binding calls cover weakened binding; strength is not graded here.

By UniProt entry, the sequences of proteins in these tests, tags left out. Where a name states a change or a piece, a line headed by the entry shows the natural chain unless it says otherwise. Residues count along the entry.
UniProt P07359, residues 17-652: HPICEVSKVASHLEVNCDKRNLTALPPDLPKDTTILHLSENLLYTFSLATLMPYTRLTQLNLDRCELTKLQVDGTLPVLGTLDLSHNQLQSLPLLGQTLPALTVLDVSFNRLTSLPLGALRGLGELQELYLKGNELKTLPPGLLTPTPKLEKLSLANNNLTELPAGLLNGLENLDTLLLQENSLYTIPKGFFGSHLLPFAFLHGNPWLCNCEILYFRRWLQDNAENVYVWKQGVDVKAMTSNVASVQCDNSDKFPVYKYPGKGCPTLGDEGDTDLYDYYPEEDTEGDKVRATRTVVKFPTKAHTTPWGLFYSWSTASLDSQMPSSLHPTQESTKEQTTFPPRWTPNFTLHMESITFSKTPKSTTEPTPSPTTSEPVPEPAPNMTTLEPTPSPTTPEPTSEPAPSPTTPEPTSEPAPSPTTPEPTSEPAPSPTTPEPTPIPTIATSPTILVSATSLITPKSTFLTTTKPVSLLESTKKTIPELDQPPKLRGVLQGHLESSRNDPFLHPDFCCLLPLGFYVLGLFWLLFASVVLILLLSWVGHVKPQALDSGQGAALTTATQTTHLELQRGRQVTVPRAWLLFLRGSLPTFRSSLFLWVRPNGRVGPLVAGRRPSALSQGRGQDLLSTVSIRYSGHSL
UniProt P08514: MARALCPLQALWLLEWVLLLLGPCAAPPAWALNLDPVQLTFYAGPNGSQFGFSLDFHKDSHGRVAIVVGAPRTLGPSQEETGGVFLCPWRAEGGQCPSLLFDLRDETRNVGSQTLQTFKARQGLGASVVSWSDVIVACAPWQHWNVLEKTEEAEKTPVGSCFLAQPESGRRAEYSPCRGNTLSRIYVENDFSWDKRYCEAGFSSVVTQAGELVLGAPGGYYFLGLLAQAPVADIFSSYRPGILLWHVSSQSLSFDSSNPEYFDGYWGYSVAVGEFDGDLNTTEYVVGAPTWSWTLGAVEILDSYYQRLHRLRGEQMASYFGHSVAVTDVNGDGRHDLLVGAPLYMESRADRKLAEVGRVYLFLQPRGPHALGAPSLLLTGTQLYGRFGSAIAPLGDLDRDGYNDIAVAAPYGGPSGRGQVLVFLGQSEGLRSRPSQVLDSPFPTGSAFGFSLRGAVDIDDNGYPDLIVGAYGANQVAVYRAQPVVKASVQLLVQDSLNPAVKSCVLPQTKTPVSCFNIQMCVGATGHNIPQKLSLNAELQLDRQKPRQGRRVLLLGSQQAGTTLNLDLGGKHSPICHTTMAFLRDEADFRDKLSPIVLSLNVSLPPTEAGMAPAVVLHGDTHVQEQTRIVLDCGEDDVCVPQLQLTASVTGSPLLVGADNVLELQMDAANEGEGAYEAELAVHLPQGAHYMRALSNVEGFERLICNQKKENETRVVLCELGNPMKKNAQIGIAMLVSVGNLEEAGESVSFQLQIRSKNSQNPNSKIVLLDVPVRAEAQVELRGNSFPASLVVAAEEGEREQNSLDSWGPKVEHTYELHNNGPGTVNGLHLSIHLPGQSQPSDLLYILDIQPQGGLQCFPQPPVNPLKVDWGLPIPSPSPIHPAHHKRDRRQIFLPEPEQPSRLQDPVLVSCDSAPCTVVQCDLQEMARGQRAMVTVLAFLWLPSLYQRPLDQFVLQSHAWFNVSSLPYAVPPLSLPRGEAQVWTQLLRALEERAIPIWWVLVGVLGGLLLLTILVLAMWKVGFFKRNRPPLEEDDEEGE
UniProt P05106: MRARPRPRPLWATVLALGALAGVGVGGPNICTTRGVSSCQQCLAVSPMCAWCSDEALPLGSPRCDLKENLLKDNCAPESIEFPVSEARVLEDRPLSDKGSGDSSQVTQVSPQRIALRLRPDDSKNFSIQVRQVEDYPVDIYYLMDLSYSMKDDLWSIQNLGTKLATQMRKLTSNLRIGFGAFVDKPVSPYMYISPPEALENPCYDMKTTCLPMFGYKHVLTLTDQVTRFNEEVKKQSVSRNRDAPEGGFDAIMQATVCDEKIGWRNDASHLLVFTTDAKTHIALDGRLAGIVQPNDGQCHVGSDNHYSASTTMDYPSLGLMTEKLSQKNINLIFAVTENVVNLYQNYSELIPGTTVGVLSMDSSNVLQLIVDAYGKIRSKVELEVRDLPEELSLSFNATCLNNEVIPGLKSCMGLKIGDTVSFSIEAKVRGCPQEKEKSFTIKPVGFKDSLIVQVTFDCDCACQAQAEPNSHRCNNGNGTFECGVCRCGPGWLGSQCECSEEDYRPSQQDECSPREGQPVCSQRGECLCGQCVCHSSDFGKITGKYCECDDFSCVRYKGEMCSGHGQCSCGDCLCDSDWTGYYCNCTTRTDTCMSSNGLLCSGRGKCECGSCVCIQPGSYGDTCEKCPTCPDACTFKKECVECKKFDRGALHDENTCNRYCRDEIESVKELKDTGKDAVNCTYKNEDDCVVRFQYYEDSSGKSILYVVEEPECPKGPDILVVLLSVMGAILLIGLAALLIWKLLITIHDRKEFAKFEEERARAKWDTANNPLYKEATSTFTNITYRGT
UniProt P04070, residues 43-461: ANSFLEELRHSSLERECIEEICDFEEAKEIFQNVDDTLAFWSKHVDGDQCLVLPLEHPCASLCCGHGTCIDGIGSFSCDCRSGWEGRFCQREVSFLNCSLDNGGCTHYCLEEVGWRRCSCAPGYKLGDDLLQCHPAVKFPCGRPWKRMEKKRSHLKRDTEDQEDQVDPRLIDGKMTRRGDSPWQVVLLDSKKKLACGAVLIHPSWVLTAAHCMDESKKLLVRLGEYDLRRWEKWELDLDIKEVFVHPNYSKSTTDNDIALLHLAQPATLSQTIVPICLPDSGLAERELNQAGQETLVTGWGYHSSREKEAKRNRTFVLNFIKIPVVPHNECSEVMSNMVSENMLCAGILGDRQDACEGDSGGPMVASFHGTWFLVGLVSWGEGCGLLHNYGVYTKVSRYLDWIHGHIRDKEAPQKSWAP
UniProt P02671: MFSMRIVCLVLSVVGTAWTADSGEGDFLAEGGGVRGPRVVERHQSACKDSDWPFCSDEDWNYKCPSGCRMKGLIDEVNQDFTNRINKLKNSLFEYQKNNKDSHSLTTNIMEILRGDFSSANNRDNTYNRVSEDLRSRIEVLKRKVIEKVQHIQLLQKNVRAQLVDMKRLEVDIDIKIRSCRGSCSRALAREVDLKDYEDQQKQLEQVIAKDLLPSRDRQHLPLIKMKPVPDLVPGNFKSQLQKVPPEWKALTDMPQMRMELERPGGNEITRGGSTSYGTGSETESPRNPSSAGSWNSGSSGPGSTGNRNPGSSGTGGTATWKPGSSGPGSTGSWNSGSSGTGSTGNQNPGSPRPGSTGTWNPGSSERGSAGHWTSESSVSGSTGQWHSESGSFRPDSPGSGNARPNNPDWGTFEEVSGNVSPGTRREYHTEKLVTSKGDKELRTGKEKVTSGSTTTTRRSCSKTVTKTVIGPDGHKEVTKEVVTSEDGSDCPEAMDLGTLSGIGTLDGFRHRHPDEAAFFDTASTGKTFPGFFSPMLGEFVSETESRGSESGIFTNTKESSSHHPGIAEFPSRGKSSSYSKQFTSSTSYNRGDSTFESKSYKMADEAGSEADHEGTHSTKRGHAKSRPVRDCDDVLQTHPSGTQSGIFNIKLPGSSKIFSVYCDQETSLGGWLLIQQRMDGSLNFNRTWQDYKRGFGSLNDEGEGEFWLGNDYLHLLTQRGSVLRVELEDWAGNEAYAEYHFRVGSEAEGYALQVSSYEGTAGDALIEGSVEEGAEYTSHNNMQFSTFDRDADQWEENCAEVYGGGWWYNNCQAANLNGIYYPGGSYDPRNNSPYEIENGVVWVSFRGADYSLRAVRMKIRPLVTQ

Experimental findings from US20100184672A1 are described below.

The target in experiment [1] is GPIb on human platelets (human) (UniProt P07359). In words: platelet adhesion to immobilized ligand under flow, reconstituted blood at shear rate 300 s^-1 for 3 min, DIC images; GPIb dependence shown with anti-GPIb mAb 6D1 (10 ug/ml).
The target is the same in experiment [2]. In words: PC-coated 10 um polystyrene beads perfused over immobilized platelets in a parallel-plate flow chamber, shear rate 150 s^-1, 5 min, adherent beads counted; with or without anti-GPIb mAb 6D1.
For experiment [3] the target is unchanged. As to the kind of experiment: PC-coated 10 um polystyrene beads perfused over immobilized platelets in a parallel-plate flow chamber, shear rate 150 s^-1, 5 min, images.
Experiment [4] addresses T1, integrin αIIbβ3 on human platelets (human) (UniProt P08514+P05106). As to the kind of experiment: platelet adhesion to immobilized ligand under flow, reconstituted blood at shear rate 300 s^-1 for 3 min, DIC images; alphaIIbbeta3 dependence shown with eptifibatide (20 ug/ml).
The target of experiment [5] is T1, integrin αIIbβ3 on human platelets (human). As to the kind of experiment: static adhesion of purified human platelets to immobilized ligand, 45 min at 37 C, DIC images; alphaIIbbeta3 dependence shown with anti-alphaIIbbeta3 (eptifibatide).

Consider “Protein C (PC), human plasma-derived zymogen (from UniProt P04070 43-461) (enzyme)”, for which the binding result in experiment [1], in experiment [2] and in experiment [3] was “binds” in each case.
Turning to “fibrinogen (from UniProt P02671 20-629; P02675 31-491; P02679 27-437) (ligand)”, the binding entry in experiment [4] and in experiment [5] was “binds” throughout.
